This passage reports binding results from EP0813419B1 (YEDA RESEARCH & DEVELOPMENT COMPANY, LTD., dated 2005).

Chains of the proteins cited; added tags and fusions are not shown.
UniProt Q13158: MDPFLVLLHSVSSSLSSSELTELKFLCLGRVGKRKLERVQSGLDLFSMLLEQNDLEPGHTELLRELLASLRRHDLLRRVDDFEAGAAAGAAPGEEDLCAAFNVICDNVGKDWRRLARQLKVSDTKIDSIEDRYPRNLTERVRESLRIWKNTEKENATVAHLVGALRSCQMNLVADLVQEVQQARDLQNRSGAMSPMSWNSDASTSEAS

These are yes or no findings as the source states them, for the method shown. For part of these data: Binding seen in cells or lysates may run through a third protein. Some results given as binding are weak or reduced against the parent protein; the word gives no strength. For part of these data: Tags and fused reporters may be left off the sequences shown.

Assay [1] has as its target T1, DD of TRADD (amino acids 195-312), fused at its N-terminus either with the FLAG octapeptide or the HA epitope (human) (UniProt Q15628).
T1 sequence (looked up): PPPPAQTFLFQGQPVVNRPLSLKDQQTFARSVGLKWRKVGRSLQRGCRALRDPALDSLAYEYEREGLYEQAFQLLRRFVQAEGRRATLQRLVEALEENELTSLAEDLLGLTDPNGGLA
The assay can be described thus: co-immunoprecipitation from lysates of transfected HeLa cells, 35S label, SDS-PAGE (15% acrylamide), autoradiography.

For assay [2], the target named is T1, DD of TRADD (amino acids 195-312), fused at its N-terminus either with the FLAG octapeptide or the HA epitope (human). The assay can be described thus: co-immunoprecipitation from lysates of transfected HeLa cells (anti-FLAG M2 or anti-HA 12CA5), 35S label, SDS-PAGE, autoradiography.
Assay [3] deals with MORT-1 (bait of a two-hybrid screen) (UniProt Q13158). The assay can be described thus: yeast two-hybrid library screen with MORT-1 as bait (not shown).

For “MORT-1 (nucleotides 19-753 in GenBank accession number U24231), fused at its N-terminus with the FLAG octapeptide (from UniProt Q13158 1-208)”, the binding entry in assay [1] and in assay [2] was “binds” throughout.

B1: TRADD (encoded by cDNAs cloned in the MORT-1 two-hybrid screen) (protein, UniProt Q15628 1-312, looked up)
chain: MAAGQNGHEEWVGSAYLFVESSLDKVVLSDAYAHPQQKVAVYRALQAALAESGGSPDVLQMLKIHRSDPQLIVQLRFCGRQPCGRFLRAYREGALRAALQRSLAAALAQHSVPLQLELRAGAERLDALLADEERCLSCILAQQPDRLRDEELAELEDALRNLKCGSGARGGDGEVASAPLQPPVPSLSEVKPPPPPPPAQTFLFQGQPVVNRPLSLKDQQTFARSVGLKWRKVGRSLQRGCRALRDPALDSLAYEYEREGLYEQAFQLLRRFVQAEGRRATLQRLVEALEENELTSLAEDLLGLTDPNGGLA
Take B1: the binding entry in assay [3] is “binds”.
